# Reference: article PMC3439491
# For some of these results: Negatives hold for the conditions tested. For some of these results: At least one verdict was read from the data and is not stated in words by the source. For some of these results: Weaker means in comparison with the reference protein, sequence or condition of that experiment. For some of these results: The exact form of at least one protein or probe is not confirmed. For some of these results: Results from cells or extracts need not show a direct contact.
# Assays:
# [1] = biological target: MA-MADS5 in banana nuclear extract (UniProt E9NW24); experiment: EMSA; conditions: also fails to compete at 100-fold excess (pulp); EMSA with 2 ug recombinant protein or 15 ug nuclear extract, buffer by reference to earlier work; circularization pre-incubation: 60 mM KCl, 8 mM HEPES pH 7.9; protein in an extract; label: 32P or unlabeled
# [2] = biological target: MA-MADS5 in banana nuclear extract (UniProt E9NW24); experiment: EMSA supershift and immunoblot; conditions: fruit pulp extract (text climacteric, legend postclimacteric); EMSA with 2 ug recombinant protein or 15 ug nuclear extract, buffer by reference to earlier work; circularization pre-incubation: 60 mM KCl, 8 mM HEPES pH 7.9; protein in an extract; label: 32P 5' end
# [3] = biological target: MA-MADS5 full length (A) (UniProt E9NW24); experiment: competition with a labelled probe; conditions: EMSA with 2 ug recombinant protein or 15 ug nuclear extract, buffer by reference to earlier work, circularization pre-incubation: 60 mM KCl, 8 mM HEPES pH 7.9, recombinant protein, residues 1-243, protein details: 6xHis (pQE30)
# [4] = biological target: MA-MADS5 in banana nuclear extract (UniProt E9NW24); experiment: competition with a labelled probe; conditions: 100-fold excess vs N1; EMSA with 2 ug recombinant protein or 15 ug nuclear extract, buffer by reference to earlier work; circularization pre-incubation: 60 mM KCl, 8 mM HEPES pH 7.9; protein in an extract
# [5] = biological target: MA-MADS5 B (MADS) (UniProt E9NW24); experiment: EMSA; conditions: EMSA with 2 ug recombinant protein or 15 ug nuclear extract, buffer by reference to earlier work; circularization pre-incubation: 60 mM KCl, 8 mM HEPES pH 7.9; recombinant protein; residues 1-60; protein details: 6xHis (pQE30); label: 32P
# [6] = biological target: MA-MADS5 in banana nuclear extract (UniProt E9NW24); experiment: EMSA + MS identification; South-Western; conditions: flower and climacteric pulp extract; EMSA with 2 ug recombinant protein or 15 ug nuclear extract, buffer by reference to earlier work; circularization pre-incubation: 60 mM KCl, 8 mM HEPES pH 7.9; protein in an extract; label: 32P
sequence,measurement,setting,value
"ACTGAAGCTTTCCATGCATGGGAATGACGCACAATCCCAC (double strand) [AGAMOUS element m1 (Am probe, CArGm)]",binding result,[1],no binding
TTGGATTCTTATATGTCACGAA (double strand) [CArG motif 1 (MA-SPS)],binding result,[2],binds
GAGGTTGGTGATTTGTCACTAC (double strand) [m5 (MA-ACO1)],binding result,[3]; 100-fold excess vs N8,no binding
CTGGTATCTGTTCATGAAATCT (double strand) [m8 (MA-LEC)],binding result,[3]; 100-fold excess vs N11,no binding
CGCGGATAAGCGTACGCGGATAAGCGTA (double strand) [GATA box],binding result,[4],no binding
ACTGAAGCTTTCCATTAATGGGAATGACGCACAATCCCAC (double strand) [AGAMOUS element 1 CArG-box (A probe)],binding result,[5],binds more weakly
same,binding result,[6],binds
ACACCCCAGCAATTTGATCTTC (double strand) [m2 (MA-ACS1)],binding result,[3]; 100-fold excess vs N5,no binding
TTGGATTCTTGCATGTCACGAA (double strand) [m1 (MA-SPS)],binding result,[3]; 100-fold excess vs N4,no binding
AAGCACGCATATCGGTGCTGCA (double strand) [m7 (MA-EXP)],binding result,[3]; 100-fold excess vs N10,no binding
